Experimental findings from PMC12242765 are described below.

Amino acid sequences for entries named in this document (tags omitted).
UniProt P49739: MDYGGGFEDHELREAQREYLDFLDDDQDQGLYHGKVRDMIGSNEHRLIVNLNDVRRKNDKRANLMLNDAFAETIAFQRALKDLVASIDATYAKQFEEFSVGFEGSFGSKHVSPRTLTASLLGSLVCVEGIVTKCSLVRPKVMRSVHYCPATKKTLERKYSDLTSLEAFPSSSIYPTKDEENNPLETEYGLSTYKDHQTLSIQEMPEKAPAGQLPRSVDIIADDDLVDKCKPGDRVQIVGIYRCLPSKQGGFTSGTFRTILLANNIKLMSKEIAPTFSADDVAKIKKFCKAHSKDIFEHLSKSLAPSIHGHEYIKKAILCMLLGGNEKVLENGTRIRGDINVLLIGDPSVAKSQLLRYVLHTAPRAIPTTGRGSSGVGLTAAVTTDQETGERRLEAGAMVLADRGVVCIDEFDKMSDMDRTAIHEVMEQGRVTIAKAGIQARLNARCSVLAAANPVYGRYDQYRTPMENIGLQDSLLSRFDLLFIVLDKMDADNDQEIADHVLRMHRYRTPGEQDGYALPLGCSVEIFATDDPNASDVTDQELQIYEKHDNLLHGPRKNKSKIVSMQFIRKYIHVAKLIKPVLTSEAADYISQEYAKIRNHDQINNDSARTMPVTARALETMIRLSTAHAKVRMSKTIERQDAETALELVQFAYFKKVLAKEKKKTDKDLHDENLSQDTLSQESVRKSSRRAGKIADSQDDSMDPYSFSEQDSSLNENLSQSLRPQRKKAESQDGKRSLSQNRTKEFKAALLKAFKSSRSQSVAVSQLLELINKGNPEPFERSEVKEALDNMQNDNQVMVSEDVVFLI
UniProt Q9DE14: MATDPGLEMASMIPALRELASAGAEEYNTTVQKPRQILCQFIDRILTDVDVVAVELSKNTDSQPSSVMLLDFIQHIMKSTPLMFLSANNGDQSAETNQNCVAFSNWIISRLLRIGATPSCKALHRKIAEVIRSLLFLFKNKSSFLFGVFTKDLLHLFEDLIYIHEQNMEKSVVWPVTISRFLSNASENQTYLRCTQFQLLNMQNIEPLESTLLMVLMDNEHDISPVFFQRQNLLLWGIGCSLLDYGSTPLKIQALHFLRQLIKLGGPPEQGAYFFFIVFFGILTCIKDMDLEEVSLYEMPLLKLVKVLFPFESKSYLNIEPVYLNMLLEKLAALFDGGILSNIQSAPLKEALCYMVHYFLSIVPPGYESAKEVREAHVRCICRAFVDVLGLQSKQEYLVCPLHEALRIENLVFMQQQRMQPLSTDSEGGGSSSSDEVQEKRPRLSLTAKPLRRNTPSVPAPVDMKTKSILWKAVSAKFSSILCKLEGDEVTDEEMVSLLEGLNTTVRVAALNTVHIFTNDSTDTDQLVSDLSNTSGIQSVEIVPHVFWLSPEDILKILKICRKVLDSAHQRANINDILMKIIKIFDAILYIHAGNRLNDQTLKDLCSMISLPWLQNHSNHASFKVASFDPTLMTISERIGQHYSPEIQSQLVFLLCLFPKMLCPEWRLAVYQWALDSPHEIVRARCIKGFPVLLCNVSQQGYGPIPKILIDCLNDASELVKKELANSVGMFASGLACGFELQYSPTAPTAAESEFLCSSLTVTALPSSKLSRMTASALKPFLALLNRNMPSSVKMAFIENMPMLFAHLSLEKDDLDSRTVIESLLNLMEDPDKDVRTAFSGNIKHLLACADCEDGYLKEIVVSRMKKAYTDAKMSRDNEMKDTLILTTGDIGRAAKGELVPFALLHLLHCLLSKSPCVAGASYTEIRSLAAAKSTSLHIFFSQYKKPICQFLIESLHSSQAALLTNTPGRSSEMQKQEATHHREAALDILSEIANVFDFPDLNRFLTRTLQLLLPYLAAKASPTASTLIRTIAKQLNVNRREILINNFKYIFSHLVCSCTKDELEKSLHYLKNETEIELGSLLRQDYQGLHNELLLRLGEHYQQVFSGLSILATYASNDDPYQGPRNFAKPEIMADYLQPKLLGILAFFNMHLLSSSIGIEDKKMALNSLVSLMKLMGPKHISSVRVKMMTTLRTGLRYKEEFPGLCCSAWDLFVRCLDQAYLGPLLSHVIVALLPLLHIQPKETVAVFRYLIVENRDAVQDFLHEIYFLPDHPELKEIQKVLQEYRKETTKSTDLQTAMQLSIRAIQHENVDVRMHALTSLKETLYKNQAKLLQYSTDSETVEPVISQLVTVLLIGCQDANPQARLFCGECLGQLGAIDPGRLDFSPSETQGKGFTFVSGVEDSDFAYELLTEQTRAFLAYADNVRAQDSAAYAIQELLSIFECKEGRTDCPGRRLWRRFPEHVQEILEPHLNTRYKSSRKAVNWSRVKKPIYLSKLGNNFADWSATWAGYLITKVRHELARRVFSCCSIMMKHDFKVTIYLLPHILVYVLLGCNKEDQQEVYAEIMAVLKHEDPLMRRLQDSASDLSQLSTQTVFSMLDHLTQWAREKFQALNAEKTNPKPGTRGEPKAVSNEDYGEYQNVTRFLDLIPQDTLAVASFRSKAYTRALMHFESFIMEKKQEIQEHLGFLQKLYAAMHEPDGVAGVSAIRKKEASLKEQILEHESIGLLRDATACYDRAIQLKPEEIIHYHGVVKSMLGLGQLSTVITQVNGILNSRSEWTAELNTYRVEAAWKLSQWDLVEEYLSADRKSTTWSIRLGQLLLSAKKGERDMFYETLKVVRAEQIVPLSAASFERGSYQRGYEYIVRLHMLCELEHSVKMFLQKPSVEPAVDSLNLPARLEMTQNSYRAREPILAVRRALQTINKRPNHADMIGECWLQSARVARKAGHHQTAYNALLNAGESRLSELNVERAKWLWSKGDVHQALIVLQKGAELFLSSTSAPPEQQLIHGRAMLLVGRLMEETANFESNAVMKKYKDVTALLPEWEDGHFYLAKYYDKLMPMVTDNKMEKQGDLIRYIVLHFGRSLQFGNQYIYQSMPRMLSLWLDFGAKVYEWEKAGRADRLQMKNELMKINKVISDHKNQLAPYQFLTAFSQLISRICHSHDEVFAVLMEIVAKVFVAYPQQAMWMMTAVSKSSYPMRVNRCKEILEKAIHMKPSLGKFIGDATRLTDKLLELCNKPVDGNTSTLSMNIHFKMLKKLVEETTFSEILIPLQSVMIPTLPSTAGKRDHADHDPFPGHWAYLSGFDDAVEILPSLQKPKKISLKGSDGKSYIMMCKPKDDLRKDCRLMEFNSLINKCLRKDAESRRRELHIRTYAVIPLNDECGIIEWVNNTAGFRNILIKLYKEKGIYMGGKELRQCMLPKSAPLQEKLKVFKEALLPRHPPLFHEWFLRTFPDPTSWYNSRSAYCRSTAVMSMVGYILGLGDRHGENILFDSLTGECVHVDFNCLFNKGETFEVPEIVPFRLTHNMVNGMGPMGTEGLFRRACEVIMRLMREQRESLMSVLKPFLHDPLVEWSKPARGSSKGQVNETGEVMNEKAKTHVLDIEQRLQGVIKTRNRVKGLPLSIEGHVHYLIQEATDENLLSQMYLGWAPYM
UniProt P31669: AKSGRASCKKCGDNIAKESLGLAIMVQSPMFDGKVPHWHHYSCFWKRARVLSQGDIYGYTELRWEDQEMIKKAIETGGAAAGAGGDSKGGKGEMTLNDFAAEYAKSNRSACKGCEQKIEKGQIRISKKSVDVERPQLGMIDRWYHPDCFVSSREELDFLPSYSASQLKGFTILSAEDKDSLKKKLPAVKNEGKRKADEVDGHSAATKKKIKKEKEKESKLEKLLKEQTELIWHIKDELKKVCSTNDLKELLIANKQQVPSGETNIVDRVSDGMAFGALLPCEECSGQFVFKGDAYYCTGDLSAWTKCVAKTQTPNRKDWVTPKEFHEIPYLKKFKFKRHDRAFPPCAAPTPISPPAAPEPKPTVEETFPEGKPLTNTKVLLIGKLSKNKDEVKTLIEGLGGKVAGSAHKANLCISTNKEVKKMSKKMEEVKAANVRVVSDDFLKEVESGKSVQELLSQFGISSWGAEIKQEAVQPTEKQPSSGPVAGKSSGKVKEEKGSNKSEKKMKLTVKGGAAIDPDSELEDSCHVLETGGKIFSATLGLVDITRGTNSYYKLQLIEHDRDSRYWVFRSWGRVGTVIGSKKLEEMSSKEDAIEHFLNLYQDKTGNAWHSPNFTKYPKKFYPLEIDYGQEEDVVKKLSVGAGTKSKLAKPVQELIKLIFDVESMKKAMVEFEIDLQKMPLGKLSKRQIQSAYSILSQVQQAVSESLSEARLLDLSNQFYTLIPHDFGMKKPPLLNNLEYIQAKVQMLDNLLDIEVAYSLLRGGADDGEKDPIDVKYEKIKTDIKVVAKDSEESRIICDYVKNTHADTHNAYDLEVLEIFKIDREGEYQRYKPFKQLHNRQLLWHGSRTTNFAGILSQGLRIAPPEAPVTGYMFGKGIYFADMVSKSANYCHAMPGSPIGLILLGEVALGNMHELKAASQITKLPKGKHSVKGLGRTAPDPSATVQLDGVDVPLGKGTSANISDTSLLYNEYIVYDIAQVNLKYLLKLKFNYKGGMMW

For this test, the target named is Mcm3 (X. laevis (endogenous in egg extract)) (UniProt P49739). Briefly: affinity purification with mass spectrometry; Mcm3 IP from chromatin in S-phase (replisomes retained by CULi and p97i) and in mitosis (CyclinA1ΔN added); re-analysis of the authors' previously published mass spectrometry data (refs 4 and 10), peptides normalised to total Mcm2-7.

These are yes or no findings as the source states them, for the method shown. Binding seen in cells or lysates may run through a third protein. Here binding means that the protein was enriched with, or labelled near, the bait; the list need not be complete.

On to “ATR (from UniProt Q9DE14 1-2654) (enzyme)”, for which the binding result was “binds”.
As to “Parp1 (from UniProt P31669 1-998) (enzyme)”, the binding entry is listed as “binds”.
